PubChem BioAssay AID1259308, NCATS | 2017
Here is an unselected part of about 59,000 reagents tested. Of all reagents, about 1,510 (2.6%) got an active call. 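Calls use total luciferase alone and ignore viability, so some active siRNAs may act by altering cell number.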 A number with no mark means an inactive call. Further read-outs or replicates are left out here. Reagent sequences are not shown.

Aim: 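Genes whose loss raises luciferase production in HEK293 cells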 (primary screen)
System: human HEK293 embryonic kidney cells stably expressing firefly luciferase (HEK-CMV-Luc2-Hygro)
Reagent: single siRNA against human genes, 0.8 pmol siRNA per well
Duration: 72 h
Detection: 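Luciferase light (ONE-Glo) measured on one replicate plate set and viability (CellTiter-Glo) on the other, scaled to a negative control siRNA, with robust z-scores and luciferase per cell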
Direction: total luciferase, z-score and total luciferase, % of control: higher = more reporter protein produced
Active means: 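An siRNA counts as active if its total luciferase robust z-score exceeds 3; genes with two or more such siRNAs out of three were retested with fresh siRNAs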
Meaning of the calls: active = raised luciferase; inactive = no rise

gene knocked down	PubChem SID	total luciferase, z-score	total luciferase, % of control
NGRNP1	SID160734714	0.274	87.3
NGRNP1	SID160773545	2.9	139
NGRNP1	SID160773546	1.1	104
IGSF22	SID160762843	0.343	88.7
IGSF22	SID160762844	0.974	101
IGSF22	SID160762845	-0.0764	80.4
PILRB	SID160739452	-0.328	75.4
PILRB	SID160739453	-1.42	53.7
PILRB	SID160739454	-0.262	76.7
OR10AD1	SID160755885	-0.0297	81.3
OR10AD1	SID160755886	3.78 (active)	157
OR10AD1	SID160755887	-0.439	73.2
PHB1	SID160714236	-0.32	75.5
PHB1	SID160714237	-0.611	69.7
PHB1	SID160714238	-0.536	71.2

Continued; the last 4 above are carried over.
gene knocked down	PubChem SID	total luciferase, z-score	total luciferase, % of control
OR10AD1	SID160755887	-0.439	73.2
PHB1	SID160714236	-0.32	75.5
PHB1	SID160714237	-0.611	69.7
PHB1	SID160714238	-0.536	71.2
FCMR	SID160721739	1.26	107
FCMR	SID160721740	-0.229	77.3
FCMR	SID160721741	1.57	113
USP47	SID160742787	-1.91	43.9
USP47	SID160742788	0.0604	83.1
USP47	SID160742790	1.78	117
PTCHD3	SID160765247	0.0236	82.4
PTCHD3	SID160765248	-0.269	76.5
PTCHD3	SID160765249	-1.03	61.3
TAF5	SID160717658	-0.431	73.3
TAF5	SID160717659	1.28	107
TAF5	SID160717660	0.522	92.3
TJP3	SID160738439	-1.96	43
TJP3	SID160738440	-0.709	67.8
TJP3	SID160738441	-1.89	44.4
GNL3L	SID160741911	0.949	101
GNL3L	SID160741913	-0.246	77
GNL3L	SID160741914	-1.69	48.3
FREY1	SID160724841	1.61	114
FREY1	SID160724842	0.767	97.1
FREY1	SID160758056	3.26 (active)	147
TMEM82	SID160765926	0.107	84
TMEM82	SID160765927	0.154	85
TMEM82	SID160765928	0.934	100
